Reference: doi:10.1101/2021.08.20.456807
No constants are given. Whether binding was seen depends on the method and setting. Binding seen in cells or lysates may run through a third protein. Binding can be weak; no strength is given.

Amino acid sequences for entries named in this document (tags omitted).
UniProt P08670: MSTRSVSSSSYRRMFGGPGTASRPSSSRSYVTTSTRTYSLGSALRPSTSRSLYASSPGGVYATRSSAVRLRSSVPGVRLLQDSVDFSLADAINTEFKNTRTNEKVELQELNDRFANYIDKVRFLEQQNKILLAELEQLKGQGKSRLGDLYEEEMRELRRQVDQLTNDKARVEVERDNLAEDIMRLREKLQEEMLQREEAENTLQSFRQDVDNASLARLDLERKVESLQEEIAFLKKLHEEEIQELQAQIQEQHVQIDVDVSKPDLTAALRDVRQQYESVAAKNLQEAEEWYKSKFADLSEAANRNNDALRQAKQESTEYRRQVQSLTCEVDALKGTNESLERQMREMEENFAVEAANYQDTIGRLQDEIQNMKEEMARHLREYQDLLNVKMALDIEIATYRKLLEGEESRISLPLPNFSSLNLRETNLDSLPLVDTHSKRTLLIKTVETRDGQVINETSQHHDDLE
UniProt Q9NZJ4: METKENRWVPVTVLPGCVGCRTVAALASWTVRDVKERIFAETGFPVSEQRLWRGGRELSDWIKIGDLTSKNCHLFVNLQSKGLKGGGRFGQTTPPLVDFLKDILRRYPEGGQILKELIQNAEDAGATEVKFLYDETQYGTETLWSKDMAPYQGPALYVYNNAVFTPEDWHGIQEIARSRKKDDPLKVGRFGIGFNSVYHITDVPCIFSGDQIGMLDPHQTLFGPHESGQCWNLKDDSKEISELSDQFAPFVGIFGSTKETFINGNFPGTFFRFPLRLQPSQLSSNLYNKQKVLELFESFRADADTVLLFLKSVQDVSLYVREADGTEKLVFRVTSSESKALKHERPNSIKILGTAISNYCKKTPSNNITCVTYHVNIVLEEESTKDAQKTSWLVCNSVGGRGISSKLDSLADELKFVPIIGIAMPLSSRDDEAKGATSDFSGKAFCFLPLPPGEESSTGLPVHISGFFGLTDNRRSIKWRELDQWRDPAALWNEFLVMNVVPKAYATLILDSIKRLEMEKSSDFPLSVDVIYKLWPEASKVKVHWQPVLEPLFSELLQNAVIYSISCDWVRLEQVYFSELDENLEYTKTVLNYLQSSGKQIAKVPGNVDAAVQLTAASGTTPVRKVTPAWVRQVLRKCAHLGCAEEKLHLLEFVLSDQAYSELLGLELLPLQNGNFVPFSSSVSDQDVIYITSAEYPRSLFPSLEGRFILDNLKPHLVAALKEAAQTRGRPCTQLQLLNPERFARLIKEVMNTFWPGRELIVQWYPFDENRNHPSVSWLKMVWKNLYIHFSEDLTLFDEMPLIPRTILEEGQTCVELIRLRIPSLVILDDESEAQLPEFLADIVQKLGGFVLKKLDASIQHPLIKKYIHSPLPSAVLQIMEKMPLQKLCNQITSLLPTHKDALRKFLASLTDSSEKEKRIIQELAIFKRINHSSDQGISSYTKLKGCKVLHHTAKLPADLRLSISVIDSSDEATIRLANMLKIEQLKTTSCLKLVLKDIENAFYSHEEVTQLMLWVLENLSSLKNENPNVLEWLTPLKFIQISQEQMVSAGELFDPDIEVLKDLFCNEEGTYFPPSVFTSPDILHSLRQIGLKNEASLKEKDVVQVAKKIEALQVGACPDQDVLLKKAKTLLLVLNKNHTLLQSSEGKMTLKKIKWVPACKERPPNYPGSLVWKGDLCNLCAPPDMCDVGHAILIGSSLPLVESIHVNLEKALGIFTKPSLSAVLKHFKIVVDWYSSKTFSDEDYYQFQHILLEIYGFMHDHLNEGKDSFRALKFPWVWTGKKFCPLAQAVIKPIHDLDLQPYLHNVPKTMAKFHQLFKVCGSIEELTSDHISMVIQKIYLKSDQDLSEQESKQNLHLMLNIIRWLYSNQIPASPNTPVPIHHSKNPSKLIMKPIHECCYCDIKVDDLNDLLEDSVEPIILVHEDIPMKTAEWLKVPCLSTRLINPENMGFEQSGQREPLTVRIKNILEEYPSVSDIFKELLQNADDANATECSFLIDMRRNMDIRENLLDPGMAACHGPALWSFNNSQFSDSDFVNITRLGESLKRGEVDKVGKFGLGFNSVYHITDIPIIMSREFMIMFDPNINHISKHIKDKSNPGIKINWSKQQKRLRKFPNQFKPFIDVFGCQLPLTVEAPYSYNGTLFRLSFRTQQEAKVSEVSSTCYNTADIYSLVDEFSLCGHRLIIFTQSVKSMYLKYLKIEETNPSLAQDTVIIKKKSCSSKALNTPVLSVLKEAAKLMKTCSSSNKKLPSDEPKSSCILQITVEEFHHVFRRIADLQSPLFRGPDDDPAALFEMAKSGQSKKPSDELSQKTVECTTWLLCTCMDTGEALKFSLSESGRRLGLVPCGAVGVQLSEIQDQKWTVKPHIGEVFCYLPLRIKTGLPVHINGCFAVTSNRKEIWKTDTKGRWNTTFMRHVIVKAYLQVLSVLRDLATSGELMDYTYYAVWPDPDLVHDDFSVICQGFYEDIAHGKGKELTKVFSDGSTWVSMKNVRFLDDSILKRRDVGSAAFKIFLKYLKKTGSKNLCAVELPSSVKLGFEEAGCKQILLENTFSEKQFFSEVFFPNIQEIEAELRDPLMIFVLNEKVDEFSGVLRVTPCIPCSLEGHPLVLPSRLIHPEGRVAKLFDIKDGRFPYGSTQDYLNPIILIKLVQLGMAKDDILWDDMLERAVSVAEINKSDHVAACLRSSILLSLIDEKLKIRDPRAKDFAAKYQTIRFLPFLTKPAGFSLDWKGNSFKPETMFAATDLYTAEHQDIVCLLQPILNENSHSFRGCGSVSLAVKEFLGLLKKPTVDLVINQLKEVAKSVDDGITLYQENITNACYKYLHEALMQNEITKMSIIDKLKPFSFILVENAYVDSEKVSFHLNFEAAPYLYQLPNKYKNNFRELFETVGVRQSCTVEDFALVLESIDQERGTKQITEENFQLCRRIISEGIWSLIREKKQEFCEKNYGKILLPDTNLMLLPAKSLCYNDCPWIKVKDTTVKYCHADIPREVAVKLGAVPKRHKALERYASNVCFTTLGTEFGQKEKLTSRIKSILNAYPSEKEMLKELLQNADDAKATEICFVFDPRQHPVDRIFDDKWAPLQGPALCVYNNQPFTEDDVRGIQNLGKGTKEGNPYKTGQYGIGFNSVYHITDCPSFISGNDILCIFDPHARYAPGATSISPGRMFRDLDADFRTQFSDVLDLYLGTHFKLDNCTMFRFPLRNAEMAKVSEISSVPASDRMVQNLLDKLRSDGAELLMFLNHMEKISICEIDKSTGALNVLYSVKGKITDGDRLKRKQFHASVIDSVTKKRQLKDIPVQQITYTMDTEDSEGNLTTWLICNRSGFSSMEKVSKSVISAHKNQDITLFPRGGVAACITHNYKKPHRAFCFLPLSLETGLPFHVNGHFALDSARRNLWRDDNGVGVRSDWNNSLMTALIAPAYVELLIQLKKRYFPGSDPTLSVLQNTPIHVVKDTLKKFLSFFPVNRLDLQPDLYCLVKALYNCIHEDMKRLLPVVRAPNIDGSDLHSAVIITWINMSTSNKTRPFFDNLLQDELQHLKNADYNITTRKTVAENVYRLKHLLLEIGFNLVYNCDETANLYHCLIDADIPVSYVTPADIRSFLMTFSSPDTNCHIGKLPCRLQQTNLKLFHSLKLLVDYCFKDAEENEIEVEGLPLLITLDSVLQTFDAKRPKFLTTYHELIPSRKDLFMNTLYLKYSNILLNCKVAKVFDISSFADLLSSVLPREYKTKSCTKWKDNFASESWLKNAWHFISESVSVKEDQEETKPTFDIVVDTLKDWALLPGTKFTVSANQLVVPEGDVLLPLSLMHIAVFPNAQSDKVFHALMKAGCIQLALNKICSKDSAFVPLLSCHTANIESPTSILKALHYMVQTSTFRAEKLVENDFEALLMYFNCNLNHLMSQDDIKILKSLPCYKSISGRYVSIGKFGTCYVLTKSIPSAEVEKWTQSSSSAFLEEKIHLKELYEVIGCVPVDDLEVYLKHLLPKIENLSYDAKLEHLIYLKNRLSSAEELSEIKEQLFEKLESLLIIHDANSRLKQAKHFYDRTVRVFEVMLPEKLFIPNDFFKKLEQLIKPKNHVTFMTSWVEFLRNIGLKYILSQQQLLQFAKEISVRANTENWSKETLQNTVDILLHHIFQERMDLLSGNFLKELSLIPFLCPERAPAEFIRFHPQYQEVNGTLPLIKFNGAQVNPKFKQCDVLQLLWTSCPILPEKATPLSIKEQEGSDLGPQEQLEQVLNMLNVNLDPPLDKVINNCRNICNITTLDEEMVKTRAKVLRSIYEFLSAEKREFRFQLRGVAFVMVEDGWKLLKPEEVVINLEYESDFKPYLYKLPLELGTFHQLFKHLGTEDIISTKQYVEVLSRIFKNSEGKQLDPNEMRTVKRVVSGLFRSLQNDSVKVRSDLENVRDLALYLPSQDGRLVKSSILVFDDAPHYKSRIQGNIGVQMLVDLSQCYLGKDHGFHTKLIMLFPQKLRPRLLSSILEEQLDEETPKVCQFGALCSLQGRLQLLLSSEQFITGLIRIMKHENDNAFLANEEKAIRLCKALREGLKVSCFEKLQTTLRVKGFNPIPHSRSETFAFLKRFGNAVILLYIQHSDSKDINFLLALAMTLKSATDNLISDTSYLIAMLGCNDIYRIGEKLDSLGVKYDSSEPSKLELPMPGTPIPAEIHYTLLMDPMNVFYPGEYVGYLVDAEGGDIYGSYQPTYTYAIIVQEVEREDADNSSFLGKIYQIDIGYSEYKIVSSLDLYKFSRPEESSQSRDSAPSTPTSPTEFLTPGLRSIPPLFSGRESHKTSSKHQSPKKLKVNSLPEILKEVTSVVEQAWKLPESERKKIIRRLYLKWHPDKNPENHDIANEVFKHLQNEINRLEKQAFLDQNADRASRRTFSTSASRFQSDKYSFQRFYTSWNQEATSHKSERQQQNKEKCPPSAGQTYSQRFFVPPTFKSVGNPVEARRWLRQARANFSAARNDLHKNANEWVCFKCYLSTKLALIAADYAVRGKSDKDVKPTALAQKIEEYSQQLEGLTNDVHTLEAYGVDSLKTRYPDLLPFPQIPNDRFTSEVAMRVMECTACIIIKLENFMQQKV

Legend:
Assay in all cases: co-IP
[1] = biological target: vimentin (human (endogenous in SH-SY5Y)) (UniProt P08670)
[2] = biological target: T1, neurofascin (human (endogenous in SH-SY5Y)) (UniProt O94856)
T1 sequence: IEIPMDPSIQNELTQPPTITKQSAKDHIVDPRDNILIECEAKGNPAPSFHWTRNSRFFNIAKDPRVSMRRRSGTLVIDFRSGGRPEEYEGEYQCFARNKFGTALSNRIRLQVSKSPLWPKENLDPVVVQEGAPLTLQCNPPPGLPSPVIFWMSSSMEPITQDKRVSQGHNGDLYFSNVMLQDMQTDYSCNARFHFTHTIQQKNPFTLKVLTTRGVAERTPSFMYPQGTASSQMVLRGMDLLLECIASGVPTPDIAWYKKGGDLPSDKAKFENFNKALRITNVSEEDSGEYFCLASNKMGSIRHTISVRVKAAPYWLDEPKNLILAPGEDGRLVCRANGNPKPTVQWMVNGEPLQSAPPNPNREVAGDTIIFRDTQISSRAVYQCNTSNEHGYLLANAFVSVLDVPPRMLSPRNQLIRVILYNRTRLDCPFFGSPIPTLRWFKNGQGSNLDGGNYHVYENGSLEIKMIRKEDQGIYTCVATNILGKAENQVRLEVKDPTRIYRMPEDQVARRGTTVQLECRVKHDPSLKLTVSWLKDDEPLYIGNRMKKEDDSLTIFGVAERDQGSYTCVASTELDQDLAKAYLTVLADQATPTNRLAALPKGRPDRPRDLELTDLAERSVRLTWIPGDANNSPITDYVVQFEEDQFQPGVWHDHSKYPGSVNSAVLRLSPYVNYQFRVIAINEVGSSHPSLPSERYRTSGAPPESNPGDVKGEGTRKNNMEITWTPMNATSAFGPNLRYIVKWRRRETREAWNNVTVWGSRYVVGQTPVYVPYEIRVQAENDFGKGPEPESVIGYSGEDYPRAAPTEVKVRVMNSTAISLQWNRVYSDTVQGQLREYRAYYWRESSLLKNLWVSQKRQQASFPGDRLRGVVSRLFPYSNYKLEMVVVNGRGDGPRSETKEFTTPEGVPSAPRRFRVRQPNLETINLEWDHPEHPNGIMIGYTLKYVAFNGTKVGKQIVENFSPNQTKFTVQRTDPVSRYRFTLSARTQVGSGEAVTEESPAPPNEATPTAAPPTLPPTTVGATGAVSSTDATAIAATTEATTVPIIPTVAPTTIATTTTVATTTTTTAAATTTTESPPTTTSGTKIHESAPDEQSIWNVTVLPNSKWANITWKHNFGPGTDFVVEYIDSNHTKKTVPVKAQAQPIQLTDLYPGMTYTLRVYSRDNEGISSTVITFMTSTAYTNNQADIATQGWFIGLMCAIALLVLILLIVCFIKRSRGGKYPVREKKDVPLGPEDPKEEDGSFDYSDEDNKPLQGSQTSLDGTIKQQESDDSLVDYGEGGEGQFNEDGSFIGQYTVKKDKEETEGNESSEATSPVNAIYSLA

[3] = biological target: sacsin (human (endogenous in SH-SY5Y)) (UniProt Q9NZJ4)

- binding [1]: binds
- binding [2]: binds
- binding [3]: binds
Substance: vinculin (from UniProt P18206-2)
